{
  "source": "patent US20230115335A1",
  "about": "“PYRAZOLE DERIVATIVES WITH ANTICANCER ACTIVITY” (BOARD OF REGENTS, THE UNIVERSITY OF TEXAS SYSTEM, priority 2021, published 2023)",
  "experiment": "Solubility note in the initial screen",
  "format": "physicochemical",
  "note": "The name of at least one read-out is uncertain.",
  "data": [
    {"compound": "O=C(N/N=C/c1cn(-c2ccccc2)nc1-c1ccc([N+](=O)[O-])cc1)c1n[nH]c2c1CCC2", "note": "[SSK-9]", "values": [
      {"measurement": "Solubility (word printed in the CEM CC50 column)", "result": "Insoluble"}
    ]}
  ]
}
